These are yes or no findings as the source states them, for the method shown. For part of these data: Binding seen in cells or lysates may run through a third protein. Some binding calls cover weakened binding; strength is not graded here.
T1: Sodium-driven chloride bicarbonate exchanger (Na-dependent chloride-bicarbonate exchanger) (mouse (endogenous in choroid plexus)) (UniProt Q5DTL9)
T1 sequence: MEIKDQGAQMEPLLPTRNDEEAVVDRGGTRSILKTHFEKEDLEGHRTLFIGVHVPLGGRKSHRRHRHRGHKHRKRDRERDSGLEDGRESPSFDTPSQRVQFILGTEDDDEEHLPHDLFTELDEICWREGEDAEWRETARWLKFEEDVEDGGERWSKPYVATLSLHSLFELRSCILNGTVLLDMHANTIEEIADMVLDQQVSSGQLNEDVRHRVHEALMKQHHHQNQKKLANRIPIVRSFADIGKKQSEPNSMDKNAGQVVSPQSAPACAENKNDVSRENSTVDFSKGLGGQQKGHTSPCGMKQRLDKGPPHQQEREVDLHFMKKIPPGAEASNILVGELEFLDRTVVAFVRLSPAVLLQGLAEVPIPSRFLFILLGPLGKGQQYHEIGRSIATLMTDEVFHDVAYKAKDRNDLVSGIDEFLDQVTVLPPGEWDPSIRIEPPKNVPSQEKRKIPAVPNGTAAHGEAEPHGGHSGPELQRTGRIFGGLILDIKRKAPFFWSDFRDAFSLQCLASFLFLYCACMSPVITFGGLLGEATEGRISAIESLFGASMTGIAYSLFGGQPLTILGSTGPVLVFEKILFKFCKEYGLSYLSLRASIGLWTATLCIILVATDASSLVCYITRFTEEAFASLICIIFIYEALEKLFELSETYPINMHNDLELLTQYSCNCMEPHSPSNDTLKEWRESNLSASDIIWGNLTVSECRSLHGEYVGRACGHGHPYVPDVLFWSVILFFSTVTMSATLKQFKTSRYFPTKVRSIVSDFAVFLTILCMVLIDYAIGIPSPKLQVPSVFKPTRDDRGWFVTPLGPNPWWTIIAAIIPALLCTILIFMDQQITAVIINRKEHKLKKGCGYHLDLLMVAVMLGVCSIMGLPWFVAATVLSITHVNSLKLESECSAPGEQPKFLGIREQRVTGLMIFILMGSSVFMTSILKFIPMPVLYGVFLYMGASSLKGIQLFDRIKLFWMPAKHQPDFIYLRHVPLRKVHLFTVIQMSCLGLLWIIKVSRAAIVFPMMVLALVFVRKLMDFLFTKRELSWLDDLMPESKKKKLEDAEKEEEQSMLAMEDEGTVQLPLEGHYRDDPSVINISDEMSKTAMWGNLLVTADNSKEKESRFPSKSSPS

Amino acid sequences for entries named in this document (tags omitted).
UniProt G5E8K5: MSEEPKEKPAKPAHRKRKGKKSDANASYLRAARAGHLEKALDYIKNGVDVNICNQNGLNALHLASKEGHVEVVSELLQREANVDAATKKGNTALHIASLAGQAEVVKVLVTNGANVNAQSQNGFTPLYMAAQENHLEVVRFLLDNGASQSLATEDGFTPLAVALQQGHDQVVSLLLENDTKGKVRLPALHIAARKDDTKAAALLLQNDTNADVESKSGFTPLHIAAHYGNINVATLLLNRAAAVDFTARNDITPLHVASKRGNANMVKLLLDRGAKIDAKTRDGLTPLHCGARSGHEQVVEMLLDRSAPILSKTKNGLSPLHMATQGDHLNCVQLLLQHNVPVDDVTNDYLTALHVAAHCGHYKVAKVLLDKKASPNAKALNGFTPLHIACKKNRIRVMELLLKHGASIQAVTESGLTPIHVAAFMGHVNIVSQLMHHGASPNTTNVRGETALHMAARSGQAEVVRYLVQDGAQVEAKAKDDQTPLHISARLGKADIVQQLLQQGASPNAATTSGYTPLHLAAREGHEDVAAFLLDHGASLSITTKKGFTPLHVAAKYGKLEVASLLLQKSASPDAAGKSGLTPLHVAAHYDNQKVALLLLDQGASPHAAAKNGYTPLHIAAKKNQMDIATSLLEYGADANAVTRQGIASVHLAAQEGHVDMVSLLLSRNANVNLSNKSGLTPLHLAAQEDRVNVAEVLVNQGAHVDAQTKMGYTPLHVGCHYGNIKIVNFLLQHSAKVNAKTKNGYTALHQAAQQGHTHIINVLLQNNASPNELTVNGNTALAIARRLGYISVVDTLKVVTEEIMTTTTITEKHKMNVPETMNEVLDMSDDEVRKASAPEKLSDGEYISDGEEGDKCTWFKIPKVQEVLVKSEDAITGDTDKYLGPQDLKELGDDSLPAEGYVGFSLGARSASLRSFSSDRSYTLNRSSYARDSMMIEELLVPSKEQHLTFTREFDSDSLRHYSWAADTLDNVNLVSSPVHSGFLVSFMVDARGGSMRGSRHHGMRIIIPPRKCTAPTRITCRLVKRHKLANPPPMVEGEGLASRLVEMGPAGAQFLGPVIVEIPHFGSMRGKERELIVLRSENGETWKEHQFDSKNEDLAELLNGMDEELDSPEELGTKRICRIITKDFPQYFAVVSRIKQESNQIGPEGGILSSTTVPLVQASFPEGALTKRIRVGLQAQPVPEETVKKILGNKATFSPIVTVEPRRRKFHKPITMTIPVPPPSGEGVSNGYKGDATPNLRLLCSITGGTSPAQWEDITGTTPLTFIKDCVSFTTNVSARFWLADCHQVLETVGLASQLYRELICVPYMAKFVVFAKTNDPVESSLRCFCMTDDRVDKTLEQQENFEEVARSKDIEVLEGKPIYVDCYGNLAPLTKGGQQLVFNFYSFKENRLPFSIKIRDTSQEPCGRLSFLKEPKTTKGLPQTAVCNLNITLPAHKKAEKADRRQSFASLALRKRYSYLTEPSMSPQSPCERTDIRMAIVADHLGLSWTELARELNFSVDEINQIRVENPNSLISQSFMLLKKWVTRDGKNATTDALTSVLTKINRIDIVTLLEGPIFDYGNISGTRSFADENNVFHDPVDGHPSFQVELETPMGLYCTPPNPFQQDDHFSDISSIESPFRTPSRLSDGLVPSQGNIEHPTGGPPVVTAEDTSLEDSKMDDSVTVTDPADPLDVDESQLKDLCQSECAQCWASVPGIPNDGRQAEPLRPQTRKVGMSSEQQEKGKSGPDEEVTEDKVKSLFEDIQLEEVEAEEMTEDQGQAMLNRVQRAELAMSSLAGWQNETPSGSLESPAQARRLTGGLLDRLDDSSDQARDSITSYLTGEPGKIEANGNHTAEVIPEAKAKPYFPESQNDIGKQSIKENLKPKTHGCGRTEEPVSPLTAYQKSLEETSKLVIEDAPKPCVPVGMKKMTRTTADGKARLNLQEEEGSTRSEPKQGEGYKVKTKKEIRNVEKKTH

T2: Anion exchange protein 2 (mouse (endogenous in choroid plexus)) (UniProt P13808)
T2 sequence: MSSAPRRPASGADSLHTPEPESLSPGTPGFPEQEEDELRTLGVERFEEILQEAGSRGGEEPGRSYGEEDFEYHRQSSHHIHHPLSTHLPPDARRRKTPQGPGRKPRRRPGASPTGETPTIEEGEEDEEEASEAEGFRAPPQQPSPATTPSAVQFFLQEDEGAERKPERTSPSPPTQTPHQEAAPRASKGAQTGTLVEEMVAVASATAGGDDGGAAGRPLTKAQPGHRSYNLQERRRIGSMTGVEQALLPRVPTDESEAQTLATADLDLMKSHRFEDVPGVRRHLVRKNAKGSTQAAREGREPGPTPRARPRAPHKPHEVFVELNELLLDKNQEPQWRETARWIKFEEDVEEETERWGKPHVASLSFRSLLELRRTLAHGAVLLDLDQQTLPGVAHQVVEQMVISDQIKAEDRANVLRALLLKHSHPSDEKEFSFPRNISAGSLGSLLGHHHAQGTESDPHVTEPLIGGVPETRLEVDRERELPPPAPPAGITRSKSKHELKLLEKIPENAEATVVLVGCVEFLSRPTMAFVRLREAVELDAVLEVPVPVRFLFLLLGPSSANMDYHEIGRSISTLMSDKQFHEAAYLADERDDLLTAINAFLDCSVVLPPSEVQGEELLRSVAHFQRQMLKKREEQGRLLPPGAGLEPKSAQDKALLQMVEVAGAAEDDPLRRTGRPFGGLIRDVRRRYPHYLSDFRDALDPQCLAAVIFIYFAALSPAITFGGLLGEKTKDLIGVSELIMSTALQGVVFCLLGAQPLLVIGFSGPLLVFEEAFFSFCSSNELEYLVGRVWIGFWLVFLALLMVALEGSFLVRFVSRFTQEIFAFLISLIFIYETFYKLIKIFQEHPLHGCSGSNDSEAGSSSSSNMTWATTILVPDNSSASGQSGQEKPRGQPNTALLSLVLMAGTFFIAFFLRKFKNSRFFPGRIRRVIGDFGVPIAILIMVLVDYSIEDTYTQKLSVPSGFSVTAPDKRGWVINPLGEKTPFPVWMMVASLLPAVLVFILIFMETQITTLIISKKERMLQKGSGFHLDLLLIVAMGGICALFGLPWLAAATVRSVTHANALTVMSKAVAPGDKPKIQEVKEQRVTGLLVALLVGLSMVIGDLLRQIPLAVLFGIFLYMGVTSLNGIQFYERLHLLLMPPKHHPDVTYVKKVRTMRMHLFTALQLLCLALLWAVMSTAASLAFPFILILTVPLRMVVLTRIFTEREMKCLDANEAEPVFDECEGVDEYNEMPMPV

T3: Na-K-2Cl cotransporter 1 (Solute carrier family 12 member 2) (mouse (endogenous in choroid plexus)) (UniProt P55012)
T3 sequence: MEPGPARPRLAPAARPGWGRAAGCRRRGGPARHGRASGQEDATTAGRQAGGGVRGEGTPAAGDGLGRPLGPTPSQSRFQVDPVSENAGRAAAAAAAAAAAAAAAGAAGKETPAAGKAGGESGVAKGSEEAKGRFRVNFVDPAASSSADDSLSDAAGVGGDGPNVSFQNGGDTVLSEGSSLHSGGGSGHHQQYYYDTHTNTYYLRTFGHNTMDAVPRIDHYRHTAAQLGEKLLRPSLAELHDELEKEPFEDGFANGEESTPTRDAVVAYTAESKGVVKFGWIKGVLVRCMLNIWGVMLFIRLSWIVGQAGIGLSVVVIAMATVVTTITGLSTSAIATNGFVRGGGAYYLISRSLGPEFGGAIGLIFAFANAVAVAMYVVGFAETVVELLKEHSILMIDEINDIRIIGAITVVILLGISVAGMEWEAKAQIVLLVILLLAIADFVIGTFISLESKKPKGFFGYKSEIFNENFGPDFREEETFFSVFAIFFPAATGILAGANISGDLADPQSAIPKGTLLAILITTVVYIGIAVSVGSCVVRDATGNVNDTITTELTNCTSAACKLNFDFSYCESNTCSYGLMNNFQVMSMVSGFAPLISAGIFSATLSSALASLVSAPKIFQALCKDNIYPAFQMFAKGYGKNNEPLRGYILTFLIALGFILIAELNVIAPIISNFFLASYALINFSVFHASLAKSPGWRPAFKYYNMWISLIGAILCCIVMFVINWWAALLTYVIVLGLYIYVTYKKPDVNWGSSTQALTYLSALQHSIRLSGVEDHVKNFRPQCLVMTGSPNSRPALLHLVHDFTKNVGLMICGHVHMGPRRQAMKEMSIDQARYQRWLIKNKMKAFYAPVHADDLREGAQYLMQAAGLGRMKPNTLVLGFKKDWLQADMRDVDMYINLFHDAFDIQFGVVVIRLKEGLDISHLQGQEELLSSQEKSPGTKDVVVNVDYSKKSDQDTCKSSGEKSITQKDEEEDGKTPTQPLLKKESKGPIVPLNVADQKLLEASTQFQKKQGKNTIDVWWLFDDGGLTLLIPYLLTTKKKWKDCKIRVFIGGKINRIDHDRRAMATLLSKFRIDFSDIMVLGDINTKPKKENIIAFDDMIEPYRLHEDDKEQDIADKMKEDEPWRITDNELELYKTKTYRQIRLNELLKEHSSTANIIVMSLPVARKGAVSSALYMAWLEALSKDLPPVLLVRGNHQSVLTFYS


Key:
[1] = target: T1, Sodium-driven chloride bicarbonate exchanger (Na-dependent chloride-bicarbonate exchanger) (mouse (endogenous in choroid plexus)); experiment: native gel or EMSA; mouse choroid plexus homogenate, 1% digitonin, soluble proteins on 3–12% NativePAGE gels, 150 V, 1 h, 4 °C; Coomassie bands cut out for mass spectrometry, and immunoblots of native gels; co-migration
[2] = target: T2, Anion exchange protein 2 (mouse (endogenous in choroid plexus)); experiment: as above
[3] = target: T3, Na-K-2Cl cotransporter 1 (Solute carrier family 12 member 2) (mouse (endogenous in choroid plexus)); experiment: as above
[4] = target: Ankyrin-3 (mouse (endogenous in choroid plexus)) (UniProt G5E8K5); experiment: proximity ligation; Duolink PLA with pairs of primary antibodies on paraformaldehyde-fixed paraffin sections of mouse brain (choroid plexus epithelium)
[5] = target: T3, Na-K-2Cl cotransporter 1 (Solute carrier family 12 member 2) (mouse (endogenous in choroid plexus)); experiment: as above

binding [1] | binding [2] | binding [3] | binding [4] | binding [5] | Molecule
binds | binds | binds | binds weakly | – | Spectrin alpha chain, non-erythrocytic 1 (from UniProt P16546 1-2472)
– | – | binds | – | binds | Anion exchange protein 2 (protein, UniProt P13808 1-1237) MSSAPRRPASGADSLHTPEPESLSPGTPGFPEQEEDELRTLGVERFEEILQEAGSRGGEEPGRSYGEEDFEYHRQSSHHIHHPLSTHLPPDARRRKTPQGPGRKPRRRPGASPTGETPTIEEGEEDEEEASEAEGFRAPPQQPSPATTPSAVQFFLQEDEGAERKPERTSPSPPTQTPHQEAAPRASKGAQTGTLVEEMVAVASATAGGDDGGAAGRPLTKAQPGHRSYNLQERRRIGSMTGVEQALLPRVPTDESEAQTLATADLDLMKSHRFEDVPGVRRHLVRKNAKGSTQAAREGREPGPTPRARPRAPHKPHEVFVELNELLLDKNQEPQWRETARWIKFEEDVEEETERWGKPHVASLSFRSLLELRRTLAHGAVLLDLDQQTLPGVAHQVVEQMVISDQIKAEDRANVLRALLLKHSHPSDEKEFSFPRNISAGSLGSLLGHHHAQGTESDPHVTEPLIGGVPETRLEVDRERELPPPAPPAGITRSKSKHELKLLEKIPENAEATVVLVGCVEFLSRPTMAFVRLREAVELDAVLEVPVPVRFLFLLLGPSSANMDYHEIGRSISTLMSDKQFHEAAYLADERDDLLTAINAFLDCSVVLPPSEVQGEELLRSVAHFQRQMLKKREEQGRLLPPGAGLEPKSAQDKALLQMVEVAGAAEDDPLRRTGRPFGGLIRDVRRRYPHYLSDFRDALDPQCLAAVIFIYFAALSPAITFGGLLGEKTKDLIGVSELIMSTALQGVVFCLLGAQPLLVIGFSGPLLVFEEAFFSFCSSNELEYLVGRVWIGFWLVFLALLMVALEGSFLVRFVSRFTQEIFAFLISLIFIYETFYKLIKIFQEHPLHGCSGSNDSEAGSSSSSNMTWATTILVPDNSSASGQSGQEKPRGQPNTALLSLVLMAGTFFIAFFLRKFKNSRFFPGRIRRVIGDFGVPIAILIMVLVDYSIEDTYTQKLSVPSGFSVTAPDKRGWVINPLGEKTPFPVWMMVASLLPAVLVFILIFMETQITTLIISKKERMLQKGSGFHLDLLLIVAMGGICALFGLPWLAAATVRSVTHANALTVMSKAVAPGDKPKIQEVKEQRVTGLLVALLVGLSMVIGDLLRQIPLAVLFGIFLYMGVTSLNGIQFYERLHLLLMPPKHHPDVTYVKKVRTMRMHLFTALQLLCLALLWAVMSTAASLAFPFILILTVPLRMVVLTRIFTEREMKCLDANEAEPVFDECEGVDEYNEMPMPV

Source: publication PMC7915972
